{"source": "patent US12533330B2", "about": "“(2S)-2-aminopentanethioic s-acid for use as medicament and in therapy of amyotrophic lateral sclerosis” (MASSEY VENTURES LIMITED, priority 2020, dated 2026)", "key": {"[1]": {"test_system": "FUS[1-359]-tg mouse line (FUS-tg)", "assay": "Onset of paralysis in FUS-tg mouse ALS model", "format": "in vivo", "conditions": "FUS-tg male mice, six weeks via drinking water from age nine weeks, (I) and (IX) 50 mg/kg/day, Riluzole 8 mg/kg", "text": "(§1) A transgenic FUS[1-359]-tg mouse line (FUS-tg) was used to test the efficacy of the substance of formula (I) in the therapy of amyotrophic lateral sclerosis according to the guidelines set for ALS preclinical studies. Ludolph A C et al. Guidelines for preclinical animal research in ALS/MND: A consensus meeting. Amyotroph Lateral Scler. 2010; 11:38-45. Mutations in DNA/RNA-binding factor (fused-in-sarcoma) FUS cause ALS in humans. The FUS-tg mouse model recapitulates core hallmarks of human ALS in the spinal cord, including neuroinflammation and neurodegeneration, ensuing muscle atrophy and paralysis. Shelkovnikova T A et al. Fused in sarcoma (FUS) protein lacking nuclear localization signal (NLS) and major RNA binding motifs triggers proteinopathy and severe motor phenotype in transgenic mice. J Biol Chem. 2013; 288:25266-25274. Lutz C. Mouse models of ALS: Past, present and future. Brain Res. 2018; 1693:1-10. de Munter J et al. Neuro-Cells therapy improves motor outcomes and suppresses inflammation during experimental syndrome of amyotrophic lateral sclerosis in mice. CNS Neurosci Ther. 2020; 26(5):504-517. […]\nThe onset of paralysis, a core ALS symptom, was recorded for each FUS-tg mouse. […]"}, "[2]": {"test_system": "FUS[1-359]-tg mouse line (FUS-tg)", "assay": "Rotarod test in FUS-tg mouse ALS model", "format": "in vivo", "conditions": "week 5, via drinking water, one-way ANOVA and Tukey's test", "text": "as §1\nThe motor coordination, strength and balance was recorded for each FUS-tg mouse in the rotarod test. […]"}}, "data": [{"compound": "Nc1nc2ccc(OC(F)(F)F)cc2s1", "note": "[Riluzole]", "values": [{"measurement": "percentage of FUS-tg mice with signs of paralysis on day 95", "setting": "[1]", "result": 38, "unit": "%"}, {"measurement": "latency to fall in the rotarod test vs. vehicle-treated FUS-tg mice", "setting": "[2]", "result": "no significant difference"}]}]}
